# These are yes or no findings as the source states them, for the method shown. Binding seen in cells or lysates may run through a third protein. A yes stands for co-enrichment or nearness to the bait. Other partners may have been found. Tags and fused reporters may be left off the sequences shown.
# Chains of the proteins cited; added tags and fusions are not shown.
# UniProt Q8IKK7: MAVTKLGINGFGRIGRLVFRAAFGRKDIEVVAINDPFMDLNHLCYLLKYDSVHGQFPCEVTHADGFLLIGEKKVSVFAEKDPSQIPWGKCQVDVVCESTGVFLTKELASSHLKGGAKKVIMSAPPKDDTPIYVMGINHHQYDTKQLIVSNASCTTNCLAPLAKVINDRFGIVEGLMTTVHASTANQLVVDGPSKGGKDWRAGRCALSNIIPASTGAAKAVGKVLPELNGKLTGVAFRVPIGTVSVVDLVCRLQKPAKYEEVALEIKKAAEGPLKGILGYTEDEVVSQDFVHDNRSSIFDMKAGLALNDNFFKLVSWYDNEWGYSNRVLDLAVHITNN
# UniProt Q8IHN4: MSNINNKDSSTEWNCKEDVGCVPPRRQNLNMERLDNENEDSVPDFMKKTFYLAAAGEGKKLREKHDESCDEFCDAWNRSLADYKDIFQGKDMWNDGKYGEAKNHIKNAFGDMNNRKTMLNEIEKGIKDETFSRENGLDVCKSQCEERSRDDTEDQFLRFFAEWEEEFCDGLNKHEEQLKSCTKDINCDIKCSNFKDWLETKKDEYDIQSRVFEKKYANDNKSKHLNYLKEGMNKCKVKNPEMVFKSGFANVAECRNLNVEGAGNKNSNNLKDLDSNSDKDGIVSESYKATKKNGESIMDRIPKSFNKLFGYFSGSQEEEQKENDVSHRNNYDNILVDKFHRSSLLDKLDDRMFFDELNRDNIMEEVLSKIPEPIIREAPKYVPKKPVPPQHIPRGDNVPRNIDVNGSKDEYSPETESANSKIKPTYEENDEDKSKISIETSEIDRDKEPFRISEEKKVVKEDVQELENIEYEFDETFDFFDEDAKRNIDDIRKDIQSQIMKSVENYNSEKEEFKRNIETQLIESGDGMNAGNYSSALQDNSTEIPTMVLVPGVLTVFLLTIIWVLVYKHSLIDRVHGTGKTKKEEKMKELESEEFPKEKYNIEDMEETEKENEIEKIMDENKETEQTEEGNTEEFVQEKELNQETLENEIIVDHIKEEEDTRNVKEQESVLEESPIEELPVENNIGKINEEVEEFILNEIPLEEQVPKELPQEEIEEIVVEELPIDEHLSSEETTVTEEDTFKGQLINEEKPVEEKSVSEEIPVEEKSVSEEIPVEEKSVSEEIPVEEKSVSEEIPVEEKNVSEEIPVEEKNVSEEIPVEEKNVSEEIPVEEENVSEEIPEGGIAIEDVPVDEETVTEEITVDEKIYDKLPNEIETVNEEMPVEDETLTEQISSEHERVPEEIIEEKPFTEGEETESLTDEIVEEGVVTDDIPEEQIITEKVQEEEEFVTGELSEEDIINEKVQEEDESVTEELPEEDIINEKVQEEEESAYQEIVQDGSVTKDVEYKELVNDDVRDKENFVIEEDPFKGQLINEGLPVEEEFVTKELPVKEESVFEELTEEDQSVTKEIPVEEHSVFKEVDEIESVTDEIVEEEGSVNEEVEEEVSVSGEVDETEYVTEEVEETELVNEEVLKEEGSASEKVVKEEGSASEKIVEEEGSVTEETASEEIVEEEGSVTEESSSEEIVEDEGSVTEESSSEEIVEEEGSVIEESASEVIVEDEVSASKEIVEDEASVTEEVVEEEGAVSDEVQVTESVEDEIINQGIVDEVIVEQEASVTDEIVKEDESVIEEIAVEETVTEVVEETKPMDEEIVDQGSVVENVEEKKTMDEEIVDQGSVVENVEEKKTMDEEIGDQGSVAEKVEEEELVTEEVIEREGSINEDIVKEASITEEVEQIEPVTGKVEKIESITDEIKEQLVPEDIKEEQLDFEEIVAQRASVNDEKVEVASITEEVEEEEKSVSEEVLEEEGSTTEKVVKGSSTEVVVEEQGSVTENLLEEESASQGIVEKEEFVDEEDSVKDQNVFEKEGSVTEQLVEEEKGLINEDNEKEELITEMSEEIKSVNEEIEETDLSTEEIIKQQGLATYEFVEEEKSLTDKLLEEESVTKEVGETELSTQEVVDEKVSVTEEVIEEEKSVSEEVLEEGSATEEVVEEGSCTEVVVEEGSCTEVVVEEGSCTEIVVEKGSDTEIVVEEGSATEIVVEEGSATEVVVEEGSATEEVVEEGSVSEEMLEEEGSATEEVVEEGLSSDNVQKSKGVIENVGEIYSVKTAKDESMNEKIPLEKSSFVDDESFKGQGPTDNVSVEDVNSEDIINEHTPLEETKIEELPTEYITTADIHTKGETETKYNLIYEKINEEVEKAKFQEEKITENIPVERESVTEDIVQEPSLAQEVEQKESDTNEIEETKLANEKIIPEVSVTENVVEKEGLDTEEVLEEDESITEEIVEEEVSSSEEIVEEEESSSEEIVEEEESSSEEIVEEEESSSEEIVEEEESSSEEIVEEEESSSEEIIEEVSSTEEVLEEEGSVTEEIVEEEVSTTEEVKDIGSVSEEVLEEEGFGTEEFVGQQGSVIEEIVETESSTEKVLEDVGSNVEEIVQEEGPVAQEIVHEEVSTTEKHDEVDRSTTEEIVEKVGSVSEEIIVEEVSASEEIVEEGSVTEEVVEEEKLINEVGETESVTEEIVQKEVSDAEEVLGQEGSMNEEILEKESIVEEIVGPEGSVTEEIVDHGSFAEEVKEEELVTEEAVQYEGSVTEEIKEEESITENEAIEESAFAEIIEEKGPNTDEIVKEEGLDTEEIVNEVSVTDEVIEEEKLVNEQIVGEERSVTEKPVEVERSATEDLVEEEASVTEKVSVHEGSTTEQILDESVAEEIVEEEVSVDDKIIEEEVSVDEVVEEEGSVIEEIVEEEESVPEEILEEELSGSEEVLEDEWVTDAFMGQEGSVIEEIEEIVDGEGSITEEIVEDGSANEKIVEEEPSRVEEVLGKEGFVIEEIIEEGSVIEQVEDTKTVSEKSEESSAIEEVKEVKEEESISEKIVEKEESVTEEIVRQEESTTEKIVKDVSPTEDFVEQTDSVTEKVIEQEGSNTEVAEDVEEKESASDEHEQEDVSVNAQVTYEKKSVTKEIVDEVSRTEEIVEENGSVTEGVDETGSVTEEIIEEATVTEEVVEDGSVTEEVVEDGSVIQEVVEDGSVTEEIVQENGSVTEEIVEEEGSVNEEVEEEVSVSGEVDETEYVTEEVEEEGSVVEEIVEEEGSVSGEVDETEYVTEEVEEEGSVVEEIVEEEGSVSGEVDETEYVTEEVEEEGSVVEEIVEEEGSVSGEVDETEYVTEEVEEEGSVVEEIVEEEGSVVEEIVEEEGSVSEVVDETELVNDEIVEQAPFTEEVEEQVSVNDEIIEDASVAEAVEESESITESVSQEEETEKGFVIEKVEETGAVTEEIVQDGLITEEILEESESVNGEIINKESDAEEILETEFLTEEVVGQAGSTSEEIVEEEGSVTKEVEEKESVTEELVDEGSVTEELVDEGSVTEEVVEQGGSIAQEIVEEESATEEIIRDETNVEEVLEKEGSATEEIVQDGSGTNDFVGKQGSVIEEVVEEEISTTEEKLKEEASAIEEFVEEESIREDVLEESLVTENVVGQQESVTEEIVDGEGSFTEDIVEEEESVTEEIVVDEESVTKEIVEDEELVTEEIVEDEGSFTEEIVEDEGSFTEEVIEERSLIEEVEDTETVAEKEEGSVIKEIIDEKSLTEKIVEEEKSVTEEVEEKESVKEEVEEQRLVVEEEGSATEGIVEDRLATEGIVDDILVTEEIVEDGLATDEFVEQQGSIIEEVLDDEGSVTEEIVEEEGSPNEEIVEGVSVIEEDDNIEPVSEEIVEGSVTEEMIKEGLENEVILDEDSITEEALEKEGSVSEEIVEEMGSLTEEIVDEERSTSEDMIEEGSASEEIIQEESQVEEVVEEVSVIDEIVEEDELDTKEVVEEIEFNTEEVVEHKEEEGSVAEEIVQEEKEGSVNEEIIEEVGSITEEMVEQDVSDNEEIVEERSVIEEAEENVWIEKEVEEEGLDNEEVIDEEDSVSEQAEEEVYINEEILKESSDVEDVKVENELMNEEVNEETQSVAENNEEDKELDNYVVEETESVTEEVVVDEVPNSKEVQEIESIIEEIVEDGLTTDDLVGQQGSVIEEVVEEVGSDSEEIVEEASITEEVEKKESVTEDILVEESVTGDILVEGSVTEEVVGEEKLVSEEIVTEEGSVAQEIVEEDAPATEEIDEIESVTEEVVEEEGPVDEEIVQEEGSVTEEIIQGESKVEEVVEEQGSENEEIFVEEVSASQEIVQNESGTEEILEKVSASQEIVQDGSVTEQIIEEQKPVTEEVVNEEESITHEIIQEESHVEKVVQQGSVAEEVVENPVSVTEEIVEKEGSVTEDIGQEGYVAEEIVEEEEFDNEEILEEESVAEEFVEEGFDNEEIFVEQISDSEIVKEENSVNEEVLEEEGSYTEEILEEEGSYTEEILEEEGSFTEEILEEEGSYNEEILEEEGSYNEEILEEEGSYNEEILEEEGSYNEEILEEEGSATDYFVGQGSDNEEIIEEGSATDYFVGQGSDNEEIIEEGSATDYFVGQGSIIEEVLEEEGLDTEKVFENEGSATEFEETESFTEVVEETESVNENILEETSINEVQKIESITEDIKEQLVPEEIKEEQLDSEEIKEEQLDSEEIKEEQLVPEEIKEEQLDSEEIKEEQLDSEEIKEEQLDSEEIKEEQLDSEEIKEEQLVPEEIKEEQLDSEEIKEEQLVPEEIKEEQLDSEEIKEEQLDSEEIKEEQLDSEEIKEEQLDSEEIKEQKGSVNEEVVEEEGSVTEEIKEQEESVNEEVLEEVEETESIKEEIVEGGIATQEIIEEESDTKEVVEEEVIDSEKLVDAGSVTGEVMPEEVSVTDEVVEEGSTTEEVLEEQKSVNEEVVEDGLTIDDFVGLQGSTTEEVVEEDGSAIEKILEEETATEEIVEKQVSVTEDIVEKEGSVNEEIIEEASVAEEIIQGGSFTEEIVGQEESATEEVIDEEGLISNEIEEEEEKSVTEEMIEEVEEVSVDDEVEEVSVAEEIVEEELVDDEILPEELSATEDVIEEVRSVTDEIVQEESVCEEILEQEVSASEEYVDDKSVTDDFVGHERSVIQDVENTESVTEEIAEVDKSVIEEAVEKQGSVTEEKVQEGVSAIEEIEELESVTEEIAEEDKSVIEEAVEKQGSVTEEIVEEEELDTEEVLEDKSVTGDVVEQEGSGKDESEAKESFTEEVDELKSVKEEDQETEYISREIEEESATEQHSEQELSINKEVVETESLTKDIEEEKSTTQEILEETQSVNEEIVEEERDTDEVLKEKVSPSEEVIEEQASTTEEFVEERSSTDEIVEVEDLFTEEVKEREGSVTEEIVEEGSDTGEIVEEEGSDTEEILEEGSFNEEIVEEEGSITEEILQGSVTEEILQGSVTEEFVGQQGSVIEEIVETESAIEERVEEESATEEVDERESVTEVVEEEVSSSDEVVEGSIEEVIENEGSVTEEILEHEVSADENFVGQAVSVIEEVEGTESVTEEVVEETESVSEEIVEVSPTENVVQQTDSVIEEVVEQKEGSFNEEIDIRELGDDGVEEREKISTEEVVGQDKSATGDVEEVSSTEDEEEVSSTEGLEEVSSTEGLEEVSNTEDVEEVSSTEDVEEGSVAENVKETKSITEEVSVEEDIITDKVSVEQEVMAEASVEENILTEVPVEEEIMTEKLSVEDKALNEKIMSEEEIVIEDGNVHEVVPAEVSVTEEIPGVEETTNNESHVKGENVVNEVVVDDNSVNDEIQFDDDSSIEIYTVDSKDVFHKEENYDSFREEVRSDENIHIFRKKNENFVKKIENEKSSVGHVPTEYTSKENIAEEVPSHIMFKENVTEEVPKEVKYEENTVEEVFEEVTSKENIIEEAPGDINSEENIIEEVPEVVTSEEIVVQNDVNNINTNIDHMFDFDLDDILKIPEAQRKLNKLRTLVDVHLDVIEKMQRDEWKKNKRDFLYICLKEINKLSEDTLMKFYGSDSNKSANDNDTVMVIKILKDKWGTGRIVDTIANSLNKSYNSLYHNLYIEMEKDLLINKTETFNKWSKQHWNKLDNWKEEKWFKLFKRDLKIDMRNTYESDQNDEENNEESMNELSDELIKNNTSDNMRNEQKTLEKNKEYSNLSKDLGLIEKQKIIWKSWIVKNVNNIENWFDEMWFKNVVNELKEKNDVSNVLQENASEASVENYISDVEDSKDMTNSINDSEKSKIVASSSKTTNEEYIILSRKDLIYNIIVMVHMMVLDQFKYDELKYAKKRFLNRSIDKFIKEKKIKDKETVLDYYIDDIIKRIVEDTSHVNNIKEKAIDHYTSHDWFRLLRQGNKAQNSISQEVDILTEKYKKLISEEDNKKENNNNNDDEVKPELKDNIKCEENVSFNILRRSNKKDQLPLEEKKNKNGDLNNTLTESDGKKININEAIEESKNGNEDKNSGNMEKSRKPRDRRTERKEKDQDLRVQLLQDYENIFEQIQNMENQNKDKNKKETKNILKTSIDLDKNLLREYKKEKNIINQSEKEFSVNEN
# Target: T1, small exported membrane protein 1 (SEMP1) with a C-terminal 3xHA tag (Plasmodium falciparum) (UniProt Q8IC43)
# T1 sequence: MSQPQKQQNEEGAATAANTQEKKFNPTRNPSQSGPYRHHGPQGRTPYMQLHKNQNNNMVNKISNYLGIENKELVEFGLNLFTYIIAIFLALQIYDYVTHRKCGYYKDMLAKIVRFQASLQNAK
# Test: affinity purification with mass spectrometry; trophozoite stage 3D7 parasites expressing SEMP1-3xHA cross-linked with 1% formaldehyde, saponin released, lysed in 1% SDS and sonicated; α-HA affinity matrix, 4 °C, 16 h; washed with 50 mM Tris-HCl pH 7.4, 150 mM NaCl, 1 mM EDTA, 1% NP40; eluted with HA peptide; LC-MS/MS of TCA precipitated elution or Coomassie-stained gel slices; negative control with excess HA peptide during binding
row,Substance,binding
1,60S ribosomal protein L4 (from UniProt Q8I431 1-411),binds
2,GAPDH (PF3D7_1462800) (from UniProt Q8IKK7 1-337),binds
3,Glycophorin Binding Protein GBP (from UniProt Q8I6U8),binds
4,HSP90 (PF3D7_0708400) (from UniProt Q8IC05 1-745),binds
5,Pf332 (from UniProt Q8IHN4 1-6093),binds
6,PfHsp70-x,binds
7,parasite-infected erythrocyte surface protein 2 (PIESP2) (from UniProt Q8I488),binds

# From publication PMC4111544
